Experimental data from paper PMC3834822.
These are yes or no findings as the source states them, for the method shown. Some binding calls cover weakened binding; strength is not graded here.

Amino acid sequences for entries named in this document (tags omitted). Residues count along the entry.
UniProt P72525, residues 1-488: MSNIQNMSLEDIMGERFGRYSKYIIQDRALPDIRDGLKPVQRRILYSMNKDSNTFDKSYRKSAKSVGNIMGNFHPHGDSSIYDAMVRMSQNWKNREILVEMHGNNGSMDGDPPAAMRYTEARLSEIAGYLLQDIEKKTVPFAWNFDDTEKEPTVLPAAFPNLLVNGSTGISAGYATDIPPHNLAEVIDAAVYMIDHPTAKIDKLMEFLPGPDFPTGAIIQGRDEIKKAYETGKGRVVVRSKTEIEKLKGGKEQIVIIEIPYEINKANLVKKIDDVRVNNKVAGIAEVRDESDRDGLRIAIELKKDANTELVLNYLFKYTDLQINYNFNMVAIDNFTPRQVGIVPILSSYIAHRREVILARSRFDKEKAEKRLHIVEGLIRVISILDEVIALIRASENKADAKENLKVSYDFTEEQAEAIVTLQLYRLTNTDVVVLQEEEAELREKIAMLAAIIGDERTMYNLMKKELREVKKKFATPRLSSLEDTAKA
UniProt Q59961: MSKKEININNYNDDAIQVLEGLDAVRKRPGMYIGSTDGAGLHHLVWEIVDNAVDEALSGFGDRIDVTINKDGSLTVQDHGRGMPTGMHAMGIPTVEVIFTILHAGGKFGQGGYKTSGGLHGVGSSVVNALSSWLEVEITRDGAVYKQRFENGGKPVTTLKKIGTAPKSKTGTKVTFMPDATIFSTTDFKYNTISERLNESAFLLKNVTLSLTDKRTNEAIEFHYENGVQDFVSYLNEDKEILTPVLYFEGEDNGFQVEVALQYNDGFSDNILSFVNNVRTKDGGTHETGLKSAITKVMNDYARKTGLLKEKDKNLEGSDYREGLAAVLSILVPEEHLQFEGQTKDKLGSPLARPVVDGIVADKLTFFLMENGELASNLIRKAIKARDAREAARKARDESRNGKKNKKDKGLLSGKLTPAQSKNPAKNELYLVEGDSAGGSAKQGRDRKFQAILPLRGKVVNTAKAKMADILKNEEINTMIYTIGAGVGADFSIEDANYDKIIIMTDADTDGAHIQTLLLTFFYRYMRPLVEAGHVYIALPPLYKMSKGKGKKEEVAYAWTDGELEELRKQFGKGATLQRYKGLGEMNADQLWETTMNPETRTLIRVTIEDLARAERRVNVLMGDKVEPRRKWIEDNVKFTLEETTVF

Assays:
[1] = molecular target: ParC55 as it stands in the ParE-ParC55 fusion protein (Streptococcus pneumoniae) (UniProt P72525); assay: crystal structure; full-length ParE-ParC55 fusion protein with 34 bp V-site DNA (1:2.2 protein:DNA), MgCl2; sitting drop, 50 mM sodium citrate pH 5.0, 4-7% isopropanol; space group P4(2)2(1)2, 3.7 Å; no ATP; both purified
[2] = molecular target: S. pneumoniae topoisomerase IV ParC55 (breakage-reunion domain of ParC) (Streptococcus pneumoniae) (UniProt P72525); assay: crystal structure; ParC55 / full-length ParE (1:1 molar mixture) with 26mer E-site DNA, levofloxacin and MgCl2; sitting drop, sodium cacodylate pH 6.5-7.0, room temperature; space group H32, 6.53 Å; both purified

Row | Substance | binding [1] | binding [2]
1 | ParC55 as it stands in the ParE-ParC55 fusion protein (from UniProt P72525 1-488) (domain or fragment) | binds | 
2 | S. pneumoniae topoisomerase IV ParC55 (breakage-reunion domain of ParC) (from UniProt P72525 1-488) (domain or fragment) |  | binds
3 | S. pneumoniae topoisomerase IV ParE, full-length (N-terminally tagged) (from UniProt Q59961 1-647) (enzyme) |  | binds
4 | full-length ParE as it stands in the ParE-ParC55 fusion protein (from UniProt Q59961 1-647) | binds | 
